At least one peptide structure holds a part that was inferred or is arguable (an end, a ring closure or a residue). Peptide text beside a SMILES is read from it.
Key:
[1] = system: LPS-induced hypotension; experiment: LPS-induced hypotension in the anesthetized rat (septic shock model); assay type: in vivo; conditions: infused 18 nmol/kg^-1 /min^-1 i.v. 60 minutes before, during and after LPS 15 mg kg^-1; FIG. 4
[2] = target: T1, BK2 receptor (Rattus norvegicus, UniProt P25023)
T1 sequence (P25023 1-396): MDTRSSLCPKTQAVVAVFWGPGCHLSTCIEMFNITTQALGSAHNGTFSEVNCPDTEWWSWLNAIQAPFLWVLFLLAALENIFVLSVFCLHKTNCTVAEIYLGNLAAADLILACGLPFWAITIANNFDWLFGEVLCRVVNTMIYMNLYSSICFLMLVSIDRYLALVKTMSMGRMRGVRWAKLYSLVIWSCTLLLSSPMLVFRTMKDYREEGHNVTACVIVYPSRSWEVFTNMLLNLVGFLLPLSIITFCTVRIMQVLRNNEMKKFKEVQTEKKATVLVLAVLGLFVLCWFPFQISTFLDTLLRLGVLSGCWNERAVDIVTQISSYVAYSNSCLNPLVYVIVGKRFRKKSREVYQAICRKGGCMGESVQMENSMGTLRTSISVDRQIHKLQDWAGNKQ

SMILES	effect on LPS-induced drop in mean arterial blood pressure [1]	activity in the rat uterus BK2 receptor system [2]
CC(C)C[C@H](NC(=O)[C@@H](Cc1ccccc1)NC(=O)[C@H](CSC1CC(=O)N(CCCCCCN2C(=O)CC(SC[C@H](NC(=O)[C@H](Cc3ccccc3)NC(=O)CNC(=O)[C@@H]3C[C@@H](O)CN3C(=O)[C@@H]3CCCN3C(=O)[C@H](CCCNC(=N)N)NC(=O)[C@H](N)CCCNC(=N)N)C(=O)N[C@H](Cc3ccccc3)C(=O)N[C@@H](CC(C)C)C(=O)N[C@@H](CCCNC(=N)N)C(=O)O)C2=O)C1=O)NC(=O)[C@H](Cc1ccccc1)NC(=O)CNC(=O)[C@@H]1C[C@@H](O)CN1C(=O)[C@@H]1CCCN1C(=O)[C@H](CCCNC(=N)N)NC(=O)[C@H](N)CCCNC(=N)N)C(=O)N[C@@H](CCCNC(=N)N)C(=O)O (stereo partly drawn) [CP-0127] (HELM PEPTIDE1{[dR].R.P.[Hyp].G.F.C.[dF].L.R}|PEPTIDE2{[dR].R.P.[Hyp].G.F.C.[dF].L.R}|CHEM1{[O=C1CC([*:1])C(=O)N1CCCCCCN1C(=O)CC([*:2])C1=O]}$PEPTIDE1,CHEM1,7:R3-1:R1|PEPTIDE2,CHEM1,7:R3-1:R2$$$V2.0)	significant attenuation of the immediate drop in blood pressure	–
CC(C)C[C@H](NC(=O)[C@@H]1CCCN1C(=O)[C@H](CO)NC(=O)[C@H](Cc1cccs1)NC(=O)CNC(=O)[C@@H]1CCCN1C(=O)[C@@H]1CCCN1C(=O)[C@H](CS)NC(=O)[C@@H](N)CCCCN)C(=O)O [CP-0375] (HELM PEPTIDE1{K.C.P.P.G.[O=C([C@H](Cc1cccs1)N[*:1])[*:2]].S.P.L}$$$$V2.0)	–	no measurable activity either as agonists or antagonists
CC(C)C[C@H](NC(=O)[C@@H]1CCCN1C(=O)[C@H](CO)NC(=O)[C@H](Cc1ccccc1)NC(=O)CNC(=O)[C@@H]1C[C@@H](O)CN1C(=O)[C@@H]1CCCN1C(=O)[C@H](CS)NC(=O)[C@@H](N)CCCCN)C(=O)O [CP-0374] (HELM PEPTIDE1{K.C.P.[Hyp].G.F.S.P.L}$$$$V2.0)	–	no measurable activity either as agonists or antagonists
